# Test results from patent US20250090507A1, “Methods of Treating Cancer With a B-RAF Inhibitor” (MapKure, LLC, priority 2022, published 2025).
# Test system: patients with tumors harboring B-RAF or K-RAS/N-RAS mutations
# Assay: Phase 1 study: tumor response by investigators using RECIST v1.1
# Format: in vivo, human
# Settings: 42 patients
# Description: Objective response rate was defined as the proportion of patients who had confirmed CR or PR, assessed by the investigator using RECIST v1.1.
# Clinical benefit rate was defined as the proportion of patients with best overall response (BOR) of confirmed CR, PR, or SD lasting ≥16 weeks.
# Tumor imaging were performed within 21 days prior to the first study treatment. Results of standard of care tests or examinations performed prior to obtaining informed consent and ≤21 days prior to the first administration of IMP may be used for the purposes of screening rather than repeating the standard of care tests. During the study, tumor imaging was performed approximately every 8 (±1) weeks in the first year and approximately every 12 (±1) weeks thereafter. Tumor assessments were required to be performed on schedule regardless of whether study treatment has been administered or held.
# Tumor response was assessed by the investigators using RECIST v1.1. The same evaluator should perform assessments, if possible, to ensure internal consistency across visits.
# For the analysis of ORR, DCR, and CBR, summary tables presenting the number and proportion of responders with the 2-sided exact (Clopper-Pearson) 95% CI for response rates were presented. […]
# Treatment emergent adverse events (TEAEs) were graded per NCI CTCAE v5.0. Tumor responses were assessed by investigators using RECIST v1.1.
smiles,measurement,value
"O=C1CCc2c(Oc3ccc4c(c3)[C@H]3[C@H](NC(=O)Nc5cc(F)c(F)cc5F)[C@H]3O4)ccnc2N1 [Compound A, 1-((1S,1aS,6bS)-5-((7-oxo-5,6,7,8-tetrahydro-1,8-naphthyridin-4-yl)oxy)-1a,6b-dihydro-1H-cyclopropa[b]benzofuran-1-yl)-3-(2,4,5-trifluorophenyl)urea]",Median time on treatment,approximately 5 months
same,"Time on treatment, range",1.9-23.6 months
